According to publication PMC6351033:
No constants are given. Whether binding was seen depends on the method and setting. In cells and extracts the contact can be indirect. Some entries that bind do so weakly or less than the wild type.

Amino acid sequences for entries named in this document (tags omitted).
UniProt P26447: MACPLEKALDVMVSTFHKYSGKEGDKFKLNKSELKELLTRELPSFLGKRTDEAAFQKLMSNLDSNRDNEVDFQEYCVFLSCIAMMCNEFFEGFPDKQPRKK
UniProt P51681: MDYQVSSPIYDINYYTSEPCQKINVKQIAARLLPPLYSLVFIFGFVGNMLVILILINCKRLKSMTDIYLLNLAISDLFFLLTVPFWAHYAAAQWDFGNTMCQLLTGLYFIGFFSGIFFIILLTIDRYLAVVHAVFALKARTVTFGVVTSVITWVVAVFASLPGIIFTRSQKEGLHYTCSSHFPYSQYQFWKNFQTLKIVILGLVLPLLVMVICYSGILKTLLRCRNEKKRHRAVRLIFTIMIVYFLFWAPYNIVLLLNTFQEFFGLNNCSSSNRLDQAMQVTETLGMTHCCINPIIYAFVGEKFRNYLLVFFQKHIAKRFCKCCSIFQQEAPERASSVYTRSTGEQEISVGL
UniProt P49682: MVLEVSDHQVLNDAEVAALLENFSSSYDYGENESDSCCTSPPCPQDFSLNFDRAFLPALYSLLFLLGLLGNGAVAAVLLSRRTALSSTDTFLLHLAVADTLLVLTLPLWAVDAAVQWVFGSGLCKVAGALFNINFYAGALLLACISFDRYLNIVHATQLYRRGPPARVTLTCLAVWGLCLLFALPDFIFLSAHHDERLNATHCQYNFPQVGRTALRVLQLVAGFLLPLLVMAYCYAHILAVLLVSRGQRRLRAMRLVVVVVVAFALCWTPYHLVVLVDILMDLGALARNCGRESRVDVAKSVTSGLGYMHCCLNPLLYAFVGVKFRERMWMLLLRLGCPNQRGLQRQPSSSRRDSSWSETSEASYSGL

Biological target: Mts1 (S100A4), recombinant (UniProt P26447)
Assay: pull-down; affinity chromatography: Mts1 conjugated to BrCN-Sepharose column; supernatant of PBMC solubilised in 50 mM Tris pH 7.5, 1% Triton X-100 (diluted 10 times) applied; bound proteins by 12% SDS-PAGE and Western blot with antibodies to CCR5 and CXCR3; only the target purified

binding | Substance
binds | CCR5 chemotactic receptor (from UniProt P51681 1-352)
binds | CXCR3 chemotactic receptor (from UniProt P49682 1-368)
